# Reference: PubChem BioAssay AID1671190 (National Center for Advancing Translational Sciences (NCATS), 2021)
# Amino acid sequences for entries named in this document (tags omitted). A change or cut given only in a name is not applied to a line headed by its entry.
# UniProt P18054: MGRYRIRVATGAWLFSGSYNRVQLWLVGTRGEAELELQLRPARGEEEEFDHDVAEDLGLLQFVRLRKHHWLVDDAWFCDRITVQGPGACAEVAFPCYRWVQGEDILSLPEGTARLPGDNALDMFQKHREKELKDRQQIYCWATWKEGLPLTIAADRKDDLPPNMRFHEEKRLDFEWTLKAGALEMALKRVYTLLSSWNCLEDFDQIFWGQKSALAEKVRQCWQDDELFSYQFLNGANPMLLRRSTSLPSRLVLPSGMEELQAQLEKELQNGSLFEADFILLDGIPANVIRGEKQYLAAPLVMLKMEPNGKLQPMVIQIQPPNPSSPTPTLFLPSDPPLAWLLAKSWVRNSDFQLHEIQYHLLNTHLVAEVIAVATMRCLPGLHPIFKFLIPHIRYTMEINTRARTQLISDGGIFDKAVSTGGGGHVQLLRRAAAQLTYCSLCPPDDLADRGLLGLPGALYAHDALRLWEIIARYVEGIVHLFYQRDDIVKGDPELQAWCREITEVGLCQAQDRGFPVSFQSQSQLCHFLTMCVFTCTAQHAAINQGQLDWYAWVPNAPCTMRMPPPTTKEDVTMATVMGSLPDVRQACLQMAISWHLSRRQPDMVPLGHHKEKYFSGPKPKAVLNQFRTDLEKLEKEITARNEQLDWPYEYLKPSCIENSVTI
# Screen size: about 580,000 compounds; about 6,100 (1.1%) were called active. The inconclusive results got no clear call from the source; some entries with a clear call stand among them for comparison. Calls come from the whole dose curve; as a rule, active = well fitted inhibition curve with a large enough effect; inconclusive = small, poorly fitted or top-dose-only effect, or another doubt; inactive = no such curve, though single readings can be large or run the other way. A potency beside an inconclusive call is a rough fit, not a confirmed value.
# Molecular target: Polyunsaturated fatty acid lipoxygenase ALOX12 (Homo sapiens) (UniProt P18054)
# Assay: Primary qHTS assay for inhibitors of human arachidonate 12S-lipoxygenase (ALOX12): Round 2
# Details: purified 12hLO, xylenol orange hydroperoxide absorbance; activity change, negative = inhibition: at 108 µM (top of the series) unless noted
# Procedure, shortened: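 Purified human 12hLO at 150 nM in 25 mM Hepes, 0.01% Triton X-100, pH 7.0, preincubated 15 min at room temperature with compound. Reaction started with 40 uM arachidonic acid, 30 min at room temperature. Hydroperoxide measured by Fe-xylenol orange, 573/405 nm absorbance ratio.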
# % is set by controls: 0 for no effect and ±100 for the full control effect; potency is the fitted concentration of half-maximal effect.
Structure (SMILES),Potency,"activity change, negative = inhibition"
O=C(NC1CCCCCC1)C1CCN(C(=O)c2ccc(Cl)cc2)CC1,inactive,
CC(C)C[C@H]1CN(CCCC[C@H]2CNC(=O)C(=O)N2CCc2ccccc2)C(=O)C(=O)N1CCc1ccc(O)cc1,"inconclusive: 100 µM [inhibitor, single point]",
CCOc1ccc(Br)cc1S(=O)(=O)NCC(c1ccc(OC)cc1)N1CCOCC1 (configuration not stated),inactive,
NC(=O)c1ccc(Cn2c(C(=O)c3cc(Cl)c(N)c(Cl)c3)c3ccccc3[n+]2[O-])cc1,active: 17.8 µM,
COc1ccccc1C(=O)N1CCCCCC1c1nnc(-c2ccccc2)o1 (configuration not stated),inactive,
Cc1c(-c2ccccc2F)[nH]c2ccc(CNC(=O)C3CCNC3)cc12 (configuration not stated),inactive,
O=C(O)Cc1sc(Nc2ccccc2)nc1-c1ccc(Cl)cc1,"inconclusive: 50.1 µM [inhibitor, partial curve, poor fit]",
COc1ccc(-n2nc(C(=O)NCC(=O)NC3CCCCC3)c3ccccc3c2=O)c(OC)c1,"inconclusive: 0.891 µM [inhibitor, full curve, poor fit]",
COc1ccc(CC(NC(=O)c2nn(C)c(=O)c3ccccc23)c2ccc(OC)cc2)cc1 (configuration not stated),inactive,
O=[N+]([O-])c1ccc(Cl)cc1P(=O)(O)c1cc(Cl)ccc1[N+](=O)[O-],"inconclusive: 50.1 µM [inhibitor, partial curve, poor fit]",
CCCCc1ccc(NC(=S)Nc2ccc(Cl)c(S(=O)(=O)N(C)C)c2)cc1,active: 44.7 µM,
O=C(CSc1c2c(nc3ccccc13)CCC2)Nc1cccc(C(F)(F)F)c1,"inconclusive: 44.7 µM [inhibitor, partial curve]",
CCN(CC)c1ccc(NC(=O)c2cccn2-c2nnc(N3CCCCC3)s2)c(C)c1,"inconclusive: 89.1 µM [inhibitor, partial curve, poor fit]",
CC(=O)NCCNc1nc2cc(-c3ccc(C(=O)N4CCN(C)CC4)cc3)sc2c(=O)n1C,"inconclusive: 39.8 µM [inhibitor, single point]",
CN1CCN(C(=O)c2cccc(C(F)(F)F)c2)CC1,inactive,
Cc1c(C#N)c(O)[nH]c(=O)c1N=Nc1ccc(S(N)(=O)=O)cc1,active: 39.8 µM,
CCOC(=O)c1[nH]c(C)c(C(=O)NCc2ccc(C)cc2)c1C,inactive,
CC(Sc1nc(-c2ccco2)nc2ccccc12)C(=O)N(C(C)C)C(C)C (configuration not stated),"inconclusive: 70.8 µM [inhibitor, partial curve, poor fit]",
Cc1ccc(-n2c(-c3ccco3)nc3nc4ccccc4nc32)cc1F,"inconclusive: 50.1 µM [inhibitor, partial curve, poor fit]",
CC(=O)N1CCCC(C(=O)N2CCC3(CC2)C(=O)N(C)c2ccccc23)C1 (configuration not stated),inactive,
CCN(CC)C(=O)[C@@H](C)C1CC[C@@]2(C)CC[C@H](NC(=O)COc3ccccc3)[C@@H](C)[C@@H]2[C@H]1O (some centres not stated),inactive,
COc1ccc2cc(C(=O)NC3CCN(C4CC4)C3)c(C)nc2c1 (configuration not stated),inactive,
Cc1ccc(S(=O)(=O)N(CC(=O)Nc2cccnc2)c2cccc([N+](=O)[O-])c2)cc1,"inconclusive: 44.7 µM [inhibitor, partial curve, poor fit]",
Cc1ccc(NC(=O)c2n[nH]c(=O)c3ccccc23)cc1S(=O)(=O)N1CCCCC1,"inconclusive: 100 µM [inhibitor, single point]",

# Part of the list above in order of formula weight, low to high.
Structure (SMILES),Potency,"activity change, negative = inhibition"
Cc1c(C#N)c(O)[nH]c(=O)c1N=Nc1ccc(S(N)(=O)=O)cc1,active: 39.8 µM,
Cc1ccc(S(=O)(=O)N(CC(=O)Nc2cccnc2)c2cccc([N+](=O)[O-])c2)cc1,"inconclusive: 44.7 µM [inhibitor, partial curve, poor fit]",
CCN(CC)c1ccc(NC(=O)c2cccn2-c2nnc(N3CCCCC3)s2)c(C)c1,"inconclusive: 89.1 µM [inhibitor, partial curve, poor fit]",

# Additional structures.

Structure (SMILES),Potency,"activity change, negative = inhibition"
COc1ccc(F)cc1-c1ccccc1C=O,,inactive: 0.0028% [at 12.5 µM]
Cc1cc(C(=O)N2CCN(c3ccccc3Cl)CC2)c(C)o1,"inconclusive: 79.4 µM [inhibitor, partial curve, poor fit]",
CCNc1cc(N2CCC(CCC(=O)N3CCN(c4ncccn4)CC3)CC2)ncn1,inactive,
CC1(C)Cc2c(C#N)c(SCCO)nc(N3CCOCC3)c2CO1,inactive,
CCOc1ccc(C(=O)N2CCC3(CC2)NC(=O)N(c2ccc(F)cc2)N3)cc1,active: 2.24 µM,
CCCCn1nnnc1C(C1CC1)N1CCN(C/C=C/c2ccccc2)CC1 (configuration not stated),"inconclusive: 17.8 µM [inhibitor, partial curve, poor fit]",
COCCNc1ncccc1-c1noc([C@@H]2CCCN2C2CCOCC2)n1,"inconclusive: 12.6 µM [inhibitor, full curve, poor fit]",
CCCOc1ccc(CNC(=O)CCCn2ncn3c(cc4sc(CC)cc43)c2=O)cc1,inactive,
Cc1ccc(N2C(=O)[C@@H]3[C@H](C2=O)C2CCCN2[C@@H]3C(=O)c2ccccc2)cc1 (some centres not stated),active: 44.7 µM,
COc1ccccc1CNC(=O)c1c[nH]c2ccc(S(=O)(=O)Nc3cc(C)cc(C)c3)cc2c1=O,"inconclusive: 126 µM [inhibitor, partial curve, poor fit]",
C=CCOc1ccc(CNC(C)(C)C)cc1OC,inactive,
O=C1CCC(=O)N1c1ccc(NCc2ccccc2Cl)c([N+](=O)[O-])c1,"inconclusive: 7.94 µM [inhibitor, full curve, poor fit]",
Cc1nn(-c2ccc(F)cc2)c(Oc2ccccc2F)c1CCC(=O)N1CCCC1,"inconclusive: 28.2 µM [inhibitor, full curve]",
CCCCOc1ccc(S(=O)(=O)NCCO)cc1,inactive,
CCOc1ccc2[nH]c(=O)c(CN(CCCN3CCOCC3)Cc3nnnn3Cc3ccc(OC)cc3)cc2c1,inactive,
COCC[N+]1(C)CCCCC1,"inconclusive: 56.2 µM [inhibitor, partial curve, poor fit]",
CCNS(=O)(=O)c1ccc(NC(=O)CSc2nc(-c3ccco3)cc(C(F)(F)F)n2)cc1,"inconclusive: 112 µM [inhibitor, partial curve, poor fit]",
COc1cccc(CNc2cnc3ccccc3c2)c1O,active: 31.6 µM,
Cc1cc(/C=N/NC(=O)c2ccccc2F)c(C)n1-c1ccccc1,inactive,
COc1cc2c(cc1OC)CN(C(=O)CSc1ccc(F)cc1)CC2,,inconclusive: -30.4% [inhibitor]
CC(CNC(=O)CCCNC(=O)C1CC1)c1ccccc1 (configuration not stated),inactive,
Cc1ccc(C(=O)Nc2ccc(N3CCN(C(=O)c4ccco4)CC3)cc2)cc1,inactive,
Cc1ccc(-c2nc3c(Cl)cc(C(F)(F)F)cn3c2Cc2ccccc2)cc1,"inconclusive: 56.2 µM [inhibitor, partial curve, poor fit]",
Cc1cc(O)c2c(C)c(CC(=O)NCCCOC(C)C)c(=O)oc2c1,"inconclusive: 112 µM [inhibitor, single point]",

Structure (SMILES),Potency,"activity change, negative = inhibition"
O=C(/C=C/c1ccc(Cl)cc1)N(c1ccccn1)C1CCCCC1,inactive,
Cc1ccc(C(=O)/C=C/c2ccc(F)cc2)o1,inactive,
CCN(CC)C(=O)C1CCCN(Cc2ccc3c(c2)OCO3)C1 (configuration not stated),"inconclusive: 0.398 µM [inhibitor, full curve, poor fit]",
CC(C)Cc1ccc(-c2ccc3nccn3c2)cc1,"inconclusive: 50.1 µM [inhibitor, partial curve, poor fit]",
COc1ccc(C(=O)N2CCC(c3nn(-c4ccc(F)cc4)c(=O)[nH]3)CC2)cc1,"inconclusive: 14.1 µM [inhibitor, full curve, poor fit]",
Cc1ccc(CCC(=O)N(C)Cc2cccs2)cc1,inactive,
CCCC(=O)NC1=C(Cl)C(=O)c2ccccc2C1=O,"inconclusive: 1.12 µM [inhibitor, full curve, poor fit]",
Cc1cccc(S(=O)(=O)NC(=O)C2(C)CCN2C(=O)Cc2ccsc2)c1 (configuration not stated),"inconclusive: 8.91 µM [inhibitor, full curve, poor fit]",
CCCCC(CC)COc1ccc(C(C)=O)cc1 (configuration not stated),inactive,
COc1cccc(CN2Cc3nc(-c4cccc(O)c4)ccc3OCC2=O)c1,"inconclusive: 11.2 µM [inhibitor, full curve, poor fit]",
Cc1cccc(Cn2c(Br)nc3c2c(=O)n(C)c(=O)n3C)c1,inactive,
CCOC(=O)c1oc2ccc(S(=O)(=O)n3nc(-c4ccc(Cl)cc4)cc3N)cc2c1C,"inconclusive: 44.7 µM [inhibitor, partial curve]",
CCC(Cc1ccccc1)OC(=O)c1ccccc1C(=O)O (configuration not stated),inactive,
CC(C)Sc1snnc1-c1ccccc1,"inconclusive: 100 µM [inhibitor, partial curve, poor fit]",
O=C(c1cccs1)N(C1CCCCC1)C1CCCCC1,inactive,
N#Cc1ccccc1NC(=O)CCN(Cc1ccco1)C1CC1,"inconclusive: 63.1 µM [inhibitor, partial curve, poor fit]",
CS(=O)(=O)Nc1ccc(C2=NN(C(=O)CCC(=O)O)C(c3ccc(F)cc3)C2)cc1 (configuration not stated),inactive,
CCN(CC)C(=O)Cn1nc(-c2ccc(C)c(S(=O)(=O)N(C)C)c2)c2ccccc2c1=O,"inconclusive: 39.8 µM [inhibitor, single point]",
N=c1c2c(n(Cc3ccc(Cl)c(Cl)c3)c3c1CCC3)CCCC2,"inconclusive: 70.8 µM [inhibitor, partial curve, poor fit]",
C=CCOc1ccc(Br)cc1/C=C1\NC(=S)N(C(C)=O)C1=O,"inconclusive: 56.2 µM [inhibitor, single point]",
O=S(=O)(c1ccc(F)cc1)N1CCC(c2nc3ccccc3[nH]2)CC1,inactive,
C=C(C)COc1cc(C)cc2oc(=O)c(CC(=O)NCCc3ccc(S(N)(=O)=O)cc3)c(C)c12,"inconclusive: 70.8 µM [inhibitor, partial curve, poor fit]",
CCc1cccc2c1NC(=O)C2(O)CC(=O)c1ccc(Cl)cc1 (configuration not stated),inactive,
O=C(Cc1c(F)cccc1Cl)NC1CCN(c2cc(-c3ccccc3)[nH]n2)CC1,inactive,
